# In patent US20250092369A1, “METHOD FOR IMPROVING TRANSCYTOSIS PROPERTIES OF HUMAN BLOOD-BRAIN BARRIER MODEL” (Wisconsin Alumni Research Foundation, priority 2023, published 2025):
# At least one compound was matched to its structure with a doubt left.
# How the values were obtained:
# Assay type in all cases: cell-based, human
# [1] = test system: gene-edited PB-TRE-N1ICD hPSC-EPCs; assay: RT-qPCR of BBB-related genes in gene-edited PB-TRE-N1ICD hPSC-EPCs + CHIR ± doxycycline; conditions: clone 10(+CR2), 6d H+4d D, 1 μg/mL doxycycline vs PBS, D15
# Procedure: Gene-edited hPSC-derived EPCs (D5) with high post-MACS purity validated by flow cytometry were cultured on collagen IV-coated plates at approximately 4×10^4 cells/cm^2 in hECSR medium supplemented with various antibiotics, with media changes every other day. […] […] On D15, cells were collected for RT-qPCR quantification of differential gene expression between doxycycline and DPBS-treated gene-edited hPSC-EPCs.
# RNA extraction was performed using the Direct-zol RNA Miniprep Kit (Zymo Research). Cells were lysed with 300-600 μL TRIzol reagent (Invitrogen, Waltham, MA) depending on the estimated cell count per sample. Cell lysates were combined with an equal volume of 100% ethanol and transferred to Zymo-Spin IICR spin columns. Columns were incubated with Rnase-free DNase I (Qiagen) to eliminate residual gDNA. Columns were washed with RNA Wash Buffer and Direct-zol RNA Pre-Wash according to Zymo RNA Miniprep Kit protocols. RNA was eluted with RNase-free water and concentration was determined using a NanoDrop 2000 spectrophotometer (Thermo Scientific). 250-1000 ng of RNA was reverse transcribed for 1 h at 37° C. using the OmniScript RT Kit (Qiagen). 1 U/μL RNaseOUT (Life Technologies) was included in the reverse-transcription reactions. Reaction products were diluted to 10 ng/μL. 20 μL qPCR reactions were carried out with 10 ng cDNA and 500 nM each forward and reverse primers (Integrated DNA Technologies, Coralville, IA [Table 1]) using PowerUp SYBR Green Master Mix (Life Technologies) or 1×Taqman Gene Expression Assay probes (Thermo Scientific [Table 1]) using Taqman Fast Advanced Master Mix (Thermo Scientific). Reactions were run on an AriaMx Real-Time PCR System (Agilent Technologies, Santa Clara, CA) using the thermal cycling program corresponding to either IDT primers or Taqman probes. An annealing temperature of 60° C. was used for all reactions.
# [2] = test system: gene-edited PB-TRE-N1ICD hPSCs; assay: RT-qPCR of N1ICD and HEYL in heterogeneous gene-edited PB-TRE-N1ICD hPSCs ± doxycycline; conditions: heterogeneous pool of gene-edited hPSCs, 1 μg/mL doxycycline vs PBS, 3 days
# [3] = test system: gene-edited PB-TRE-N1ICD 10(+CR2) hPSC-EPCs; assay: Immunocytochemistry of BBB markers in gene-edited PB-TRE-N1ICD 10(+CR2) hPSC-EPCs ± doxycycline; conditions: 1 μg/mL doxycycline 4 days vs PBS control, D15
# [4] = test system: gene-edited PB-TRE-N1ICD hPSC-EPCs; assay: Fluorescent albumin accumulation assay in gene-edited PB-TRE-N1ICD hPSC-EPCs
# [5] = test system: gene-edited PB-TRE-N1ICD 10(+CR2) hPSC-EPCs; assay: Transmission electron microscopy and caveolin-1 immunogold labeling of vesicles; conditions: Dox-treated vs PBS control, D15
smiles,measurement,setting,value
"C[C@H]1c2cccc(O)c2C(=O)C2=C(O)[C@]3(O)C(=O)C(C(N)=O)=C(O)[C@@H](N(C)C)[C@@H]3[C@@H](O)[C@@H]21 [doxycycline, doxycycline hyclate]",CAV1 expression,[1],did not observe a significant reduction
same,FN1 expression,[1],significant increase
same,OCLN and TJP1 expression,[1],significant downregulation
same,PLVAP expression,[1],significant reduction
same,expression of N1ICD and HEYL,[2],significant increase
same,GLUT-1 expression by immunocytochemistry,[3],increase
same,P-glycoprotein (P-gp) expression by immunocytochemistry,[3],no difference
same,PLVAP expression by immunocytochemistry,[3],significant decrease
same,caveolin-1 expression by immunocytochemistry,[3],significant decrease
same,claudin-5 expression by immunocytochemistry,[3],reduced
same,fluorescent albumin accumulation,"[4]; clone 10(+CR2), all CD144+ cells, 1 μg/mL doxycycline vs PBS, 37° C., 2 h",significant reduction
same,fluorescent albumin accumulation in other clones,"[4]; clones 3(+Y), 9(+Y), 11(+CR2), Dox vs PBS",decreased in 2 of 3 of these clones
same,caveolin-1 Nanogold-associated vesicles per cell area,[5],fewer
same,number of vesicles between 40 and 160 nm in diameter,[5],significant decrease
same,vesicles per cell area,[5],fewer
